{
  "sequences": {"note": "Chains of the proteins cited; added tags and fusions are not shown.", "UniProt P56524": "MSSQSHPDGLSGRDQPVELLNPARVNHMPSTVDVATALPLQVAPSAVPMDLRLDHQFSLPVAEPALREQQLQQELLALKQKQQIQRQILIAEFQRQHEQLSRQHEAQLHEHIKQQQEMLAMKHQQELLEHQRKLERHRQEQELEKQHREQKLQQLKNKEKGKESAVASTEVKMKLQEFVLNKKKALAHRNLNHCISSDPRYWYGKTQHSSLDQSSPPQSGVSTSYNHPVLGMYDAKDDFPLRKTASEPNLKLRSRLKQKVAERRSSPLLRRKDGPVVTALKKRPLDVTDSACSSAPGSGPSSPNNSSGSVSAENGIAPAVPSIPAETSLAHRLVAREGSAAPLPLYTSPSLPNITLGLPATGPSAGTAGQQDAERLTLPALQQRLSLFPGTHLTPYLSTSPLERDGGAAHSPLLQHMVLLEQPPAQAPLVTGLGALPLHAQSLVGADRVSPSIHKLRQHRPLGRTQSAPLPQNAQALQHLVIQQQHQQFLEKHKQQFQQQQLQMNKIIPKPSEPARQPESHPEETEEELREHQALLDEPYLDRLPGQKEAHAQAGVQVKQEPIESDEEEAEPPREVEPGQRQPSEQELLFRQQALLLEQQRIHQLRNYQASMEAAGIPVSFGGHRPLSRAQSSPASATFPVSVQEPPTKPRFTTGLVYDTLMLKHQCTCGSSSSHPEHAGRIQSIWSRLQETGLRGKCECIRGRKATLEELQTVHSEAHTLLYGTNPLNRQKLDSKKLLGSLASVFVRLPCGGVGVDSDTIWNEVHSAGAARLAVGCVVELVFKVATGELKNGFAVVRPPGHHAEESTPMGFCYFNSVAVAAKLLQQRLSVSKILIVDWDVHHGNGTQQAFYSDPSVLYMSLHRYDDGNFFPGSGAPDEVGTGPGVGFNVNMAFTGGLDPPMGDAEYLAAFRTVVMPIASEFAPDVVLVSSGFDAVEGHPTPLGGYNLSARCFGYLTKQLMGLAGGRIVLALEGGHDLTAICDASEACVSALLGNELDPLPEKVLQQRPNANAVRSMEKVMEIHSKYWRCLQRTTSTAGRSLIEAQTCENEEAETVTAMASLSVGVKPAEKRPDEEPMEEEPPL", "UniProt P62136": "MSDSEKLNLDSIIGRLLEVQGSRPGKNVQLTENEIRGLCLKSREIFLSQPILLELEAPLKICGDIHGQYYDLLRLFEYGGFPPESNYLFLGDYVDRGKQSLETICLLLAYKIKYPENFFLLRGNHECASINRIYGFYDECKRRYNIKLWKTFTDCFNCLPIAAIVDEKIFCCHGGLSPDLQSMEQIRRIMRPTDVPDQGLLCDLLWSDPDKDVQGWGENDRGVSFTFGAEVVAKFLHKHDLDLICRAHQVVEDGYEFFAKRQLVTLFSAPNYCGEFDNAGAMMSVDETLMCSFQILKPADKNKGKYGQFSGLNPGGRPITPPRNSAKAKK", "UniProt P36873": "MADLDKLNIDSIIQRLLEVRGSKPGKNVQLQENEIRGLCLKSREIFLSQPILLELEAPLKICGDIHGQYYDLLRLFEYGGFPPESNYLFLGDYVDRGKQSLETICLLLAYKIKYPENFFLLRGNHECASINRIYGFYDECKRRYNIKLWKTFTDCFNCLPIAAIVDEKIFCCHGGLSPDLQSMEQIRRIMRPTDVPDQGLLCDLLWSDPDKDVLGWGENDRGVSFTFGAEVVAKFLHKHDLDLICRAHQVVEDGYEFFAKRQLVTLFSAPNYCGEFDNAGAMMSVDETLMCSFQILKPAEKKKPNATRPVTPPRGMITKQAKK"},
  "source": "paper PMC10850491",
  "molecules": {"B1": {"name": "endogenous GSDMD in THP-1 cells (protein, UniProt P57764 1-484)", "chain": "MGSAFERVVRRVVQELDHGGEFIPVTSLQSSTGFQPYCLVVRKPSSSWFWKPRYKCVNLSIKDILEPDAAEPDVQRGRSFHFYDAMDGQIQGSVELAAPGQAKIAGGAAVSDSSSTSMNVYSLSVDPNTWQTLLHERHLRQPEHKVLQQLRSRGDNVYVVTEVLQTQKEVEVTRTHKREGSGRFSLPGATCLQGEGQGHLSQKKTVTIPSGSTLAFRVAQLVIDSDLDVLLFPDKKQRTFQPPATGHKRSTSEGAWPQLPSGLSMMRCLHNFLTDGVPAEGAFTEDFQGLRAEVETISKELELLDRELCQLLLEGLEGVLRDQLALRALEEALEQGQSLGPVEPLDGPAGAVLECLVLSSGMLVPELAIPVVYLLGALTMLSETQHKLLAEALESQTLLGPLELVGSLLEQSAPWQERSTMSLPPGLLGNSWGEGAPAWVLLDECGLELGEDTPHVCWEPQAQGRMCALYASLALLSGLSQEPH"}},
  "key": {"[1]": {"biological_target": "Flag-HDAC4 (human) (UniProt P56524)", "assay": "co-IP; HEK293T cells transfected with the tagged proteins, lysed in IP lysis buffer with PMSF; supernatants incubated with anti-Flag beads at 4 °C; immunoblot (Fig. 8A also with Myc-HDAC4 or TSA)"}, "[2]": {"biological_target": "endogenous HDAC4 in THP-1 cells (human (endogenous in THP-1)) (UniProt P56524)", "assay": "co-IP; endogenous proteins of THP-1 cells, immunoprecipitated with control or anti-HDAC4 antibodies; immunoblot"}},
  "note": "These are yes or no findings as the source states them, for the method shown. Binding seen in cells or lysates may run through a third protein. Some entries that bind do so weakly or less than the wild type.",
  "data": [
    {"molecule": "HA-PP1α (Protein phosphatase 1 catalytic subunit alpha) (from UniProt P62136 1-330) (enzyme)", "values": [
      {"measurement": "binding", "setting": "[1]", "value": "binds"}
    ]},
    {"molecule": "HA-PP1γ (Protein phosphatase 1 catalytic subunit gamma) (from UniProt P36873 1-323) (enzyme)", "values": [
      {"measurement": "binding", "setting": "[1]", "value": "binds"}
    ]},
    {"molecule": "B1", "values": [
      {"measurement": "binding", "setting": "[2]", "value": "binds"}
    ]}
  ]
}
